Measured values as given in the supplement of paper PMC10849652.
The list shows a part of the results.

Protein sequences, listed by entry. Tags and fused reporters are not part of them. Lines headed by an entry give the natural chain unless they say otherwise; changes in a name come on top.
UniProt Q92686, whole entry, looked up: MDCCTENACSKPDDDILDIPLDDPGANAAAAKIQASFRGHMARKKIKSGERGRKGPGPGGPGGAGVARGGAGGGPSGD
UniProt Q8WTT2: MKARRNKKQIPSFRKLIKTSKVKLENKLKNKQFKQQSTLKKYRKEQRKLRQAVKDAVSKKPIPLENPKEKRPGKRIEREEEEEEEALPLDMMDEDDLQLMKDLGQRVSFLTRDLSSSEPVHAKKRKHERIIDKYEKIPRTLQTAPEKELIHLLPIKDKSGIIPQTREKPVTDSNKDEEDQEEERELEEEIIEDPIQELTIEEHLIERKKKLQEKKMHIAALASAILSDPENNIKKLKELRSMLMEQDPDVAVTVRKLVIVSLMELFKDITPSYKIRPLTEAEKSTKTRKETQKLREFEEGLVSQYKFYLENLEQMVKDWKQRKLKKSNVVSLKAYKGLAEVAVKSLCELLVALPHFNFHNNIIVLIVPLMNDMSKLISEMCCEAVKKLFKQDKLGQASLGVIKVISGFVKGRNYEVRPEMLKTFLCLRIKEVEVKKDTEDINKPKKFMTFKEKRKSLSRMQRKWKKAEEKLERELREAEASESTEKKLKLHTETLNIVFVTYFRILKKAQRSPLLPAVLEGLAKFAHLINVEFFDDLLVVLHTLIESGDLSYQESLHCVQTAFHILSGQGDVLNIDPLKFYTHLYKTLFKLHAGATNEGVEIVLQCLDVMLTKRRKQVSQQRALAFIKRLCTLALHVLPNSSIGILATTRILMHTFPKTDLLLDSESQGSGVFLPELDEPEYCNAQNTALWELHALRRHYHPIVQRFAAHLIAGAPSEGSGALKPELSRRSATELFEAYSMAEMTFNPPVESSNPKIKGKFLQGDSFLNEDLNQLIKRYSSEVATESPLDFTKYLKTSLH
UniProt Q8TDX7: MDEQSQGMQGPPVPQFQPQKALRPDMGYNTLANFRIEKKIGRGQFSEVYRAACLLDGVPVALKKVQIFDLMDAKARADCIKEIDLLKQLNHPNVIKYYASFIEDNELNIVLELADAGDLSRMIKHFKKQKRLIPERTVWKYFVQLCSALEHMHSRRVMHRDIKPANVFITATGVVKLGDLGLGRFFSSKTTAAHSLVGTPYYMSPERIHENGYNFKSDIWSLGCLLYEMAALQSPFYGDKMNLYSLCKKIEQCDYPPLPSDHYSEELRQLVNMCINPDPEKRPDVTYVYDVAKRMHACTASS
UniProt Q8NC60: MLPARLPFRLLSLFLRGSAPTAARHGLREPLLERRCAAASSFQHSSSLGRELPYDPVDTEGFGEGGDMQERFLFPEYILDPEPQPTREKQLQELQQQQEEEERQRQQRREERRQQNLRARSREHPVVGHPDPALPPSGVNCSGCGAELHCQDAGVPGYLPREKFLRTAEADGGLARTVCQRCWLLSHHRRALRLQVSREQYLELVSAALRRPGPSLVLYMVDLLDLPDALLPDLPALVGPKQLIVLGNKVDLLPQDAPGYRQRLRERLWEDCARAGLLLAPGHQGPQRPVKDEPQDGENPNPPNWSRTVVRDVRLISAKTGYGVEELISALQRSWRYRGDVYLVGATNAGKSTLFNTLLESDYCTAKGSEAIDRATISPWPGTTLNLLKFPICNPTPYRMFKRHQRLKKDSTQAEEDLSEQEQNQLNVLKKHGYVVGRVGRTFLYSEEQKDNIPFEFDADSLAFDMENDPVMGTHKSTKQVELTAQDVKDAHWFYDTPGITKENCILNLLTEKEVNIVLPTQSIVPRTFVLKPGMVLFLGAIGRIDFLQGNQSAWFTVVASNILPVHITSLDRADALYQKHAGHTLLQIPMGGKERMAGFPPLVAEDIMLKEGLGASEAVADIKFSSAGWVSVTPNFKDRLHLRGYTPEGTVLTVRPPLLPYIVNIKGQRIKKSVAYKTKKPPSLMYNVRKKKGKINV
UniProt Q14934: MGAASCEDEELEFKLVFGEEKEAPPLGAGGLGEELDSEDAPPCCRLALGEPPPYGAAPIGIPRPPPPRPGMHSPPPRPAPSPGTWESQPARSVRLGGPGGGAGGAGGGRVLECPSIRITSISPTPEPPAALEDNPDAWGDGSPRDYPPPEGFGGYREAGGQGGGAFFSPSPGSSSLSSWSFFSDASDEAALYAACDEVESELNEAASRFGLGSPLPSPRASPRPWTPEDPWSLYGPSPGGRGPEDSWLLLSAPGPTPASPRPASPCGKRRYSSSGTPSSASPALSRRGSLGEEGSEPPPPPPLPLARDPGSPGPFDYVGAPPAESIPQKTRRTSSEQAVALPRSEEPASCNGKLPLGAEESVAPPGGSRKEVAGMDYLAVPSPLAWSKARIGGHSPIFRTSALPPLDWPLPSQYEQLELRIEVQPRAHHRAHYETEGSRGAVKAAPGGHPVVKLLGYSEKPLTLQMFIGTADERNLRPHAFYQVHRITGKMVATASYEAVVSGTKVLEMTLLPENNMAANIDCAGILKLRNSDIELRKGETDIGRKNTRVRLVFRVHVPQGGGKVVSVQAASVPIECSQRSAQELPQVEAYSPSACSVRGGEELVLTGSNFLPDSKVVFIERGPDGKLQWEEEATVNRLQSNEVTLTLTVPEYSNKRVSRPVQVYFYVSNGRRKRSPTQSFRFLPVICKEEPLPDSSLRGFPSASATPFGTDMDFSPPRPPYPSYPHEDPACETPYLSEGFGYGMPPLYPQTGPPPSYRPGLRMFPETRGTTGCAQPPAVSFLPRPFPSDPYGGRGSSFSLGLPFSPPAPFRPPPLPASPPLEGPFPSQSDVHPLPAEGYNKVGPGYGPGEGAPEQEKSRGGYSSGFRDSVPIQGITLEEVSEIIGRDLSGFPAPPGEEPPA
UniProt O94916: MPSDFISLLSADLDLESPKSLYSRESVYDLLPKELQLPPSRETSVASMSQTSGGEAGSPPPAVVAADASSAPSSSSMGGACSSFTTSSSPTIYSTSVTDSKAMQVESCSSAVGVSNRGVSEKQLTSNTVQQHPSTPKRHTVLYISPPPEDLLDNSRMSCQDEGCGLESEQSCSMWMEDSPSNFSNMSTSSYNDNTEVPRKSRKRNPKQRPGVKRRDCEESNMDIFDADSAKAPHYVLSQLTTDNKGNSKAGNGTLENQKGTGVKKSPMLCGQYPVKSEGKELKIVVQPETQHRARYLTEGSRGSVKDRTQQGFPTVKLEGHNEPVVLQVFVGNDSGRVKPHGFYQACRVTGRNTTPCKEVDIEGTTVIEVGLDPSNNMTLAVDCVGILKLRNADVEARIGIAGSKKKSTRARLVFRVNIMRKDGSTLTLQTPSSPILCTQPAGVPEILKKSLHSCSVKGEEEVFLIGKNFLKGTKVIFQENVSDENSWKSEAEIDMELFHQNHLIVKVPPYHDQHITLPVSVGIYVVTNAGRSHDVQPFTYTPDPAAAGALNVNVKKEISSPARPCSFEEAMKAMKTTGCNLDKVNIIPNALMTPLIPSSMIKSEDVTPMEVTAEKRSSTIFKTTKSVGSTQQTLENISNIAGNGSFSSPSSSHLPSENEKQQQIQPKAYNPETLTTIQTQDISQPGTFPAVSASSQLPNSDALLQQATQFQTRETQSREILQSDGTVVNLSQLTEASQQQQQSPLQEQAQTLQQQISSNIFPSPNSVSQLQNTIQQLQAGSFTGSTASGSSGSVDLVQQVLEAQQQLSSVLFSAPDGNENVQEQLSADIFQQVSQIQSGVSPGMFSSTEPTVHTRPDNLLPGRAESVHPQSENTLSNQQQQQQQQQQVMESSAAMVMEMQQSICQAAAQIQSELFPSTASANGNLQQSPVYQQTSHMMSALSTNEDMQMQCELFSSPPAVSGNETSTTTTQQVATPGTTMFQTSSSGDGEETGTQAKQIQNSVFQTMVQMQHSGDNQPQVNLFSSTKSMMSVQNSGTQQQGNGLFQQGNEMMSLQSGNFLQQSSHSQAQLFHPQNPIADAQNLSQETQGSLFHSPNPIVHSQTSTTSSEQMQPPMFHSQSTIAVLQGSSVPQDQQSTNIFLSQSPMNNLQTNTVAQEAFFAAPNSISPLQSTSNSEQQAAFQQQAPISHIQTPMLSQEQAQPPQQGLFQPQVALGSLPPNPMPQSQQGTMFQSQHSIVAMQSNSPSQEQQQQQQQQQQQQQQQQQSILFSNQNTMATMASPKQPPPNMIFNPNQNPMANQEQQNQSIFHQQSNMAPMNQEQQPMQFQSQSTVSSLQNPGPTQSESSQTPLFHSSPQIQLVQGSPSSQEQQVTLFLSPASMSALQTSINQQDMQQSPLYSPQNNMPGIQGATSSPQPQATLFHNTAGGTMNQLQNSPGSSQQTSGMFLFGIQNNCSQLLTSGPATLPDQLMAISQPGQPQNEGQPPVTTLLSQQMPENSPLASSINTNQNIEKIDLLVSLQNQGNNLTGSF
UniProt Q96IV0: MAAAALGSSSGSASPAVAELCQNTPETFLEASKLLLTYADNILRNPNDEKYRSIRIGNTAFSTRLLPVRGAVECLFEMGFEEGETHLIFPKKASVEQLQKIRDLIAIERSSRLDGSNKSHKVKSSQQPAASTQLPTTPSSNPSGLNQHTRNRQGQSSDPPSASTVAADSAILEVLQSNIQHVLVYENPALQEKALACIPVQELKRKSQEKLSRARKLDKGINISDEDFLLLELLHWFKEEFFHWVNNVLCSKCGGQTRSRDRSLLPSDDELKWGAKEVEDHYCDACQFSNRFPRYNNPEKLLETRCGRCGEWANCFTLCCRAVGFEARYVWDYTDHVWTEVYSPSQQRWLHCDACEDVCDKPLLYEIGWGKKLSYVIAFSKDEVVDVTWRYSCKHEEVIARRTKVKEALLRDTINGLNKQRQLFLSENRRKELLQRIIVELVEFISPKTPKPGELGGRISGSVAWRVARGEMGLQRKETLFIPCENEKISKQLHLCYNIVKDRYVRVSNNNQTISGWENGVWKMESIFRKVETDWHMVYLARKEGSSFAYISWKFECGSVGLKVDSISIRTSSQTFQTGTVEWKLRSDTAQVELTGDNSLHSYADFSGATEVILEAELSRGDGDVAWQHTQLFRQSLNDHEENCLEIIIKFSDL
UniProt Q9BYT8, whole entry, looked up: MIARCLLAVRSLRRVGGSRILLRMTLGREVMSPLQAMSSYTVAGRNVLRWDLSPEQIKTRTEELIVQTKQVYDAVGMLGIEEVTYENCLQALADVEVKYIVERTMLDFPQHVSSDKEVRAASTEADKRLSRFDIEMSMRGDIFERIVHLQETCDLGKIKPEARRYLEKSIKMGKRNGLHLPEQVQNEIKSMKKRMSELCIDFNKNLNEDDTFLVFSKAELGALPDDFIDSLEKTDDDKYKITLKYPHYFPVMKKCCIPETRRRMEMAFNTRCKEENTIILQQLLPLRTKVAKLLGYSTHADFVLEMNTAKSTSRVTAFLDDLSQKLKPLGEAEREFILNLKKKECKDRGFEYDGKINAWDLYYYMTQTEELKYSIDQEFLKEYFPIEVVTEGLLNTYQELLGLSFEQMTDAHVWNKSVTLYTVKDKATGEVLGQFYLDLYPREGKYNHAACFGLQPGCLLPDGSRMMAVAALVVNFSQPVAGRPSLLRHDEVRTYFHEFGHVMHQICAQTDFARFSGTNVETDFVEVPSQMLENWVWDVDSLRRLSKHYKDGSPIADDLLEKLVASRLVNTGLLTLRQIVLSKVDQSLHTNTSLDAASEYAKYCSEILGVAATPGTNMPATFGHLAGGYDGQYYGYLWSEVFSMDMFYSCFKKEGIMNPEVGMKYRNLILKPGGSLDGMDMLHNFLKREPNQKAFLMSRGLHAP
UniProt Q92636: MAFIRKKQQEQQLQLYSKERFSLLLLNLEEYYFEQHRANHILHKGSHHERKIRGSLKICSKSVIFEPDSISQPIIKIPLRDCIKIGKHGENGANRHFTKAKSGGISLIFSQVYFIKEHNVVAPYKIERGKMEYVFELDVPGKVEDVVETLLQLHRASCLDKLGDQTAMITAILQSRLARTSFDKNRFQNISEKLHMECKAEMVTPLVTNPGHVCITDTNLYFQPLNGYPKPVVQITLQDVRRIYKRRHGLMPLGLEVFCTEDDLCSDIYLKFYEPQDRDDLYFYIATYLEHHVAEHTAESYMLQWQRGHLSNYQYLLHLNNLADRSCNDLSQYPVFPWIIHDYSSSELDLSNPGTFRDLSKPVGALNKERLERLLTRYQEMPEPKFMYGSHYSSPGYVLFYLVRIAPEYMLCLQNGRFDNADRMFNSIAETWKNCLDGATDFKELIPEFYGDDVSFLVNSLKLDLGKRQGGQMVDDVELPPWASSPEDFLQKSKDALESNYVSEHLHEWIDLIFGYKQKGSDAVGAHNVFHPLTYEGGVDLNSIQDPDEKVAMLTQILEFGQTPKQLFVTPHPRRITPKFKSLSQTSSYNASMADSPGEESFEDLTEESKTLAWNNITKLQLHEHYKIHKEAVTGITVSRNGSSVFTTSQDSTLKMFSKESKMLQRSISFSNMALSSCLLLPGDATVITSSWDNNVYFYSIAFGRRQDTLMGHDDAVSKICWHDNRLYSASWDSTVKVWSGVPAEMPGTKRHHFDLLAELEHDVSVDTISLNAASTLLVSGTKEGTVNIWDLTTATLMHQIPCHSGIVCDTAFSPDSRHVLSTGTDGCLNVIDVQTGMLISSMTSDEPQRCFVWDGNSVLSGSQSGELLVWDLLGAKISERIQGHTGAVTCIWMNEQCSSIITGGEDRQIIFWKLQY

What follows are targets tested with Cc1ncc(-c2ccnc(Nc3ccc(S(C)(=O)=O)cc3)n2)n1C(C)C (assay: log2 fold change, soluble protein after heating vs DMSO (PISA); higher = thermal stabilisation; K562 cells, 10 uM, 30 min; active = over 0.2 and 3.5 SD of the protein, either way, in both replicates (recomputed)).
Summary of the method: (§1)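 K562 cells at 2×10^6 cells/mL were given 10 μM compound for 30 min. Aliquots then went through 3 min of heating across 48°C-58°C, were pooled, and were extracted in PBS with 0.5% NP-40 at 4°C, and the supernatant after 21,000xg for 90 min was quantified by TMTpro 16plex LC-MS/MS with channel sums equalised. Thermal stability relative to control samples, from duplicates, is given as log2 fold change.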

log2 fold change, inactive:
NGRN (UniProt Q9NPE2) 0.016
NNMT (UniProt P40261) -0.021
NFATC3 (UniProt Q12968) -0.3
NFKB1 isoform 2 (UniProt P19838) -0.053
NRGN (UniProt Q92686) -0.088
NELFCD (UniProt Q8IXH7) 0.064
NPLOC4 isoform 2 (UniProt Q8TAT6) -0.013
NME2P1 (UniProt O60361) -0.107
NSD1 (UniProt Q96L73) 0.013
NRAS (UniProt P01111) -0.007
NOC3L (UniProt Q8WTT2) -0.004
NEK7 (UniProt Q8TDX7) 0.03
NEMF (UniProt O60524) -0.014
NOC2L (UniProt Q9Y3T9) -0.026
NMI (UniProt Q13287) -0.008
NOA1 (UniProt Q8NC60) -0.077
NOP2 isoform 4 (UniProt P46087) 0.096
NOL7 (UniProt Q9UMY1) -0.073
NOL12 (UniProt Q9UGY1) 0.044
NRM (UniProt Q8IXM6) 0.043
NOB1 (UniProt Q9ULX3) -0.045
NR2C2 isoform 2 (UniProt P49116) 0.021
NELFA (UniProt Q9H3P2) -0.152

What follows are targets tested with Cn1cc(-c2ccc3c(c2)CCN3C(=O)Cc2cccc(C(F)(F)F)c2)c2c(N)ncnc21 in the same assay as above.
Summary of the method: as §1

log2 fold change, inactive:
NSD3 (UniProt Q9BZ95) -0.13
NFATC4 isoform 2 (UniProt Q14934) 0.051
NFAT5 isoform 5 (UniProt O94916) -0.073
NGLY1 (UniProt Q96IV0) -0.009
NSF (UniProt P46459) 0.041
NLN (UniProt Q9BYT8) 0.01
NHP2 (UniProt Q9NX24) -0.123
NIPSNAP3B (UniProt Q9BS92) 0.109
NELFB isoform 2 (UniProt Q8WX92) 0.032
NFXL1 (UniProt Q6ZNB6) 0
NSMAF (UniProt Q92636) 0.016
NNT (UniProt Q13423) 0.071
NPL (UniProt Q9BXD5) -0.153
NOP56 (UniProt O00567) -0.371
NGRN (UniProt Q9NPE2) 0.056
NNMT (UniProt P40261) 0.052
NFATC3 (UniProt Q12968) -0.073
NFKB1 isoform 2 (UniProt P19838) 0.041
NELFCD (UniProt Q8IXH7) 0.061
NPLOC4 isoform 2 (UniProt Q8TAT6) 0.048
NME2P1 (UniProt O60361) -0.081
NRAS (UniProt P01111) 0.054
NEK7 (UniProt Q8TDX7) 0.11
NEMF (UniProt O60524) -0.246
NOD1 (UniProt Q9Y239) -0.048
NOC2L (UniProt Q9Y3T9) -0.099
NMI (UniProt Q13287) 0.04
NOA1 (UniProt Q8NC60) 0.006
NOP2 isoform 4 (UniProt P46087) -0.568
NOL7 (UniProt Q9UMY1) -0.257
NOL12 (UniProt Q9UGY1) -0.335
NME7 (UniProt Q9Y5B8) -0.044
NRM (UniProt Q8IXM6) 0.101
NOB1 (UniProt Q9ULX3) -0.003
NR2C2 isoform 2 (UniProt P49116) -0.003
NELFA (UniProt Q9H3P2) 0.015
